Measured values from article PMC4711953.
Results are given in words; binding and its absence hold for the method and conditions named. In cells and extracts the contact can be indirect. A result given as binding can be weak or reduced; the word gives no strength.

By UniProt entry, the sequences of proteins in these tests, tags left out. Where a name states a change or a piece, a line headed by the entry shows the natural chain unless it says otherwise.
UniProt A0A125YQD4: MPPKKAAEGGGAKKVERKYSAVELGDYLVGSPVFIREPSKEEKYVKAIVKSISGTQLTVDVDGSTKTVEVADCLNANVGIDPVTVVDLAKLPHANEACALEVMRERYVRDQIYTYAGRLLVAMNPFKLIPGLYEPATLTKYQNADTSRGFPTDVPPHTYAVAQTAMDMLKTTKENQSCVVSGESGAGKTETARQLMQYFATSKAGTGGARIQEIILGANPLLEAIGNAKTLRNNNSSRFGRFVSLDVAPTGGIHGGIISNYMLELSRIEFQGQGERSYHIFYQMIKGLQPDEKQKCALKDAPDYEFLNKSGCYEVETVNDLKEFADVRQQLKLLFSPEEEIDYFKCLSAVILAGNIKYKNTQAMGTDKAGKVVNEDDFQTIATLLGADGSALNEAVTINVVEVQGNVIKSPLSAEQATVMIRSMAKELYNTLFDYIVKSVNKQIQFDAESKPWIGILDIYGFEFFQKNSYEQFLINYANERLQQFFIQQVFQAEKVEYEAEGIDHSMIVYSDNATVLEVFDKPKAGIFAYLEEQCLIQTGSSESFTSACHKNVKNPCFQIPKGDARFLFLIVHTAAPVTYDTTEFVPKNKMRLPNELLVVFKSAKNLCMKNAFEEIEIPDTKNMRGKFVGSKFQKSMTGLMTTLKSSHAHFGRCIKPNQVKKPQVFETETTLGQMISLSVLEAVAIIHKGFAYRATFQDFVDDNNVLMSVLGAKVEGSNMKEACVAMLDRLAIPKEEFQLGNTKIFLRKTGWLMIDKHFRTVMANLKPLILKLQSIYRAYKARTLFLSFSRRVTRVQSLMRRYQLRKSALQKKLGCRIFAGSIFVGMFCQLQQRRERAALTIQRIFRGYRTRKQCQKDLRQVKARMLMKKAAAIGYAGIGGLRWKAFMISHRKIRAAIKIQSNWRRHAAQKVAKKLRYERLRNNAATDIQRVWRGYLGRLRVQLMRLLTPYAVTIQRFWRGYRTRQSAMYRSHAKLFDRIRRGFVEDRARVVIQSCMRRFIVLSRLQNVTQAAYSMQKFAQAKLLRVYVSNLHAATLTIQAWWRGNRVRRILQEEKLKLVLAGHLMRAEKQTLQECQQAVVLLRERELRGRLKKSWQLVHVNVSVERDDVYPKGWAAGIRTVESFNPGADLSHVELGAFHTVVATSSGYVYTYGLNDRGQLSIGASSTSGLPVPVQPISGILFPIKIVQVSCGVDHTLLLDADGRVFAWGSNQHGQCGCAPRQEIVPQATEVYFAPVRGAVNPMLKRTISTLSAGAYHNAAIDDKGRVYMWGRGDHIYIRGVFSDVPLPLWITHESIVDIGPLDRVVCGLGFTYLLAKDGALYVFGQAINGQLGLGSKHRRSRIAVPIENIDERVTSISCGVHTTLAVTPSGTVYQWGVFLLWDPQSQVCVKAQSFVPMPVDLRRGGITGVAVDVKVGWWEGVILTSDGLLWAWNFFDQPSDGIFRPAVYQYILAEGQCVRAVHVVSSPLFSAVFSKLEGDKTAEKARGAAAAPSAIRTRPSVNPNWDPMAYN

Molecular target: MLC5-3Ty (T. gondii myosin light chain 5 tagged at the endogenous locus) (Toxoplasma gondii)
Test: co-IP; anti-Ty antibodies on MLC5-3Ty and MLC7-3Ty strains; silver stained SDS-PAGE gel; bands at the size of MyoH cut and identified by mass spectrometry; stringent co-IP conditions

Toxoplasma gondii myosin H (endogenous, untagged) (from UniProt A0A125YQD4)
binding: binds
